Laboratory results: the supplement of paper PMC7666118
The list shows a part of the results.

Amino acid sequences for entries named in this document (tags omitted). A change or cut given only in a name is not applied to a line headed by its entry.
UniProt Q9H6R4: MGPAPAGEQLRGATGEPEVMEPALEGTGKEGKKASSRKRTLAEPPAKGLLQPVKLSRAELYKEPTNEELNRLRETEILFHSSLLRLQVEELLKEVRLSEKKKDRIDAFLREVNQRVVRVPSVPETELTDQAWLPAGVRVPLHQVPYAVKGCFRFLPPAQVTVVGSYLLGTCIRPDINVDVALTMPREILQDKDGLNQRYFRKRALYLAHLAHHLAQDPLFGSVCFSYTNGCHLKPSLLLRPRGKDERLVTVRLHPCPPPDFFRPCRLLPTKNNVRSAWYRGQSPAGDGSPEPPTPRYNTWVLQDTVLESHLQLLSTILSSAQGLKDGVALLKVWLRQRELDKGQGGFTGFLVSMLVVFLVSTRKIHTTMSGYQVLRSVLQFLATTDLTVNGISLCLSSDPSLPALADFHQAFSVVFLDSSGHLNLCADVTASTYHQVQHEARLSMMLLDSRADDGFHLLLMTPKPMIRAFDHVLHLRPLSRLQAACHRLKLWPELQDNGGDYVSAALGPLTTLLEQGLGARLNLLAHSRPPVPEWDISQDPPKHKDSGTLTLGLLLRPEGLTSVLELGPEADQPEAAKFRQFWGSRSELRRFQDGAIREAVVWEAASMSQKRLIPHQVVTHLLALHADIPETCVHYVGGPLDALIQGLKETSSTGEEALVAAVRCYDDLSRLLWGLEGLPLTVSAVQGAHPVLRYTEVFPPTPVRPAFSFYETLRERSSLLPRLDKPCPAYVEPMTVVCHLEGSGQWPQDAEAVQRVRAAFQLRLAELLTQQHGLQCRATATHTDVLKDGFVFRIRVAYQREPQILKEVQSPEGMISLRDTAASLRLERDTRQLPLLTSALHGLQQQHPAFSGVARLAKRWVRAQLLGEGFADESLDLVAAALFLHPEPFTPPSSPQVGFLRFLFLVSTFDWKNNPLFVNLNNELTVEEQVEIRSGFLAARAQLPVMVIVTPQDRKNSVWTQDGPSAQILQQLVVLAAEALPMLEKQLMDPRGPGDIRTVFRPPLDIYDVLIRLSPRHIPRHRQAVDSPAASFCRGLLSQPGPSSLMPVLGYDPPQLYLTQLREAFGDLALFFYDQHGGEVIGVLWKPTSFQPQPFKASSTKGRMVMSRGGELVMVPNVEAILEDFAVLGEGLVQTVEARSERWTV
UniProt Q9BSC4: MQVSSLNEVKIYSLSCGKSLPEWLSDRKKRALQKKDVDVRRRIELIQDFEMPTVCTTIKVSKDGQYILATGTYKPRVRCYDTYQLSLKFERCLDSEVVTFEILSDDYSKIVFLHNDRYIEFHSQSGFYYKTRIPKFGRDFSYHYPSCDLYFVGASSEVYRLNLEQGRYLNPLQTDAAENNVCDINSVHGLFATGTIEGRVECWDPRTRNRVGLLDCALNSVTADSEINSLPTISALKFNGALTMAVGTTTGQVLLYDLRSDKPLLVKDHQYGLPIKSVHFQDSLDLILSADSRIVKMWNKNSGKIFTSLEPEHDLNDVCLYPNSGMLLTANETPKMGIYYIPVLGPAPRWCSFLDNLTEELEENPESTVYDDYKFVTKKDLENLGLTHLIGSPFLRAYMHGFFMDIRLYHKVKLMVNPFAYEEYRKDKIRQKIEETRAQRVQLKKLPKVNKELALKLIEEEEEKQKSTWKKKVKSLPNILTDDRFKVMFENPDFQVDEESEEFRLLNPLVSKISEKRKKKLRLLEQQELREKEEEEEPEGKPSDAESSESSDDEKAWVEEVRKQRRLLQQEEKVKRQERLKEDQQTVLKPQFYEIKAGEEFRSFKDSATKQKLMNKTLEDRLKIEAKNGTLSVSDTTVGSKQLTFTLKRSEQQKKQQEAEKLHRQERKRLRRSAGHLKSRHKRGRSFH
UniProt Q9NZJ9: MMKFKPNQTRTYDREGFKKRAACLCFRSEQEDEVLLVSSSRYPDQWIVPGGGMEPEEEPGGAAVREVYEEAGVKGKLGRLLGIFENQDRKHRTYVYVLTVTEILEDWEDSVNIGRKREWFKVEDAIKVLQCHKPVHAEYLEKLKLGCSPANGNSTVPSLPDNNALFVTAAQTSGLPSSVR
UniProt Q8IVD9: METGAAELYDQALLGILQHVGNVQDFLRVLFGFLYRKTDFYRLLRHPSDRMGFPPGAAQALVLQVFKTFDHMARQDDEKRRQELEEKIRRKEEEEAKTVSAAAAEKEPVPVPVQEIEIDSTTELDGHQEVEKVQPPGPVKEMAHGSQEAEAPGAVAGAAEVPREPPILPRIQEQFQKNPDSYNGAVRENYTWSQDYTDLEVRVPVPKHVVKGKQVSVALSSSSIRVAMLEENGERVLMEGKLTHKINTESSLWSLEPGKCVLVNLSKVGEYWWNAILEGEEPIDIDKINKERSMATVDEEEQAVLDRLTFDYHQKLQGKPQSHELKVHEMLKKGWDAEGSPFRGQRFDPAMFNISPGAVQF
UniProt P19838: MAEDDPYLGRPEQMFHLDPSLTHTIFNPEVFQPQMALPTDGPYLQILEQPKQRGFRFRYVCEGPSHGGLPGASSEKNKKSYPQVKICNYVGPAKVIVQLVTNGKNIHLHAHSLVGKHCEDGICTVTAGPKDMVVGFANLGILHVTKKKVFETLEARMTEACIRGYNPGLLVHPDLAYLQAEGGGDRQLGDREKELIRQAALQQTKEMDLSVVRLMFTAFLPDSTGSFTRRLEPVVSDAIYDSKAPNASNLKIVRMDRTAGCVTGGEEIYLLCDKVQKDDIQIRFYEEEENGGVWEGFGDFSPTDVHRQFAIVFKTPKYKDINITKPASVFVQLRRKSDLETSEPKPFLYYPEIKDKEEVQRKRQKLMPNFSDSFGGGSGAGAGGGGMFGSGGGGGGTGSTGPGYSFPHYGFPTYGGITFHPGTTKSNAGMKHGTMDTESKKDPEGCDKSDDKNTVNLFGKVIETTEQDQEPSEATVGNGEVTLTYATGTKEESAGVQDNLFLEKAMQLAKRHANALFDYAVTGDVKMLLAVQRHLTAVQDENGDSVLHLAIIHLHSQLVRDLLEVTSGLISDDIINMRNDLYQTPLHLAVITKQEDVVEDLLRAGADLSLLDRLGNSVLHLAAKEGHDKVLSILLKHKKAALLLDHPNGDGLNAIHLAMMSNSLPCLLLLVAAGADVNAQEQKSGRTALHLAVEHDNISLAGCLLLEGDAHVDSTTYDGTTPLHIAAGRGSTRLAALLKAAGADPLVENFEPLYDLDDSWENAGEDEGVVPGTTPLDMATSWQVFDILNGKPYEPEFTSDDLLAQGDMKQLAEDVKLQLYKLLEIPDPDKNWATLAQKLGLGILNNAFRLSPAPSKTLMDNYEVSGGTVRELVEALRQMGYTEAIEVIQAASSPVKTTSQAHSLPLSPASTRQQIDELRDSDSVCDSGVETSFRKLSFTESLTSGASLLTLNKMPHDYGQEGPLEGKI
UniProt Q12857, whole entry: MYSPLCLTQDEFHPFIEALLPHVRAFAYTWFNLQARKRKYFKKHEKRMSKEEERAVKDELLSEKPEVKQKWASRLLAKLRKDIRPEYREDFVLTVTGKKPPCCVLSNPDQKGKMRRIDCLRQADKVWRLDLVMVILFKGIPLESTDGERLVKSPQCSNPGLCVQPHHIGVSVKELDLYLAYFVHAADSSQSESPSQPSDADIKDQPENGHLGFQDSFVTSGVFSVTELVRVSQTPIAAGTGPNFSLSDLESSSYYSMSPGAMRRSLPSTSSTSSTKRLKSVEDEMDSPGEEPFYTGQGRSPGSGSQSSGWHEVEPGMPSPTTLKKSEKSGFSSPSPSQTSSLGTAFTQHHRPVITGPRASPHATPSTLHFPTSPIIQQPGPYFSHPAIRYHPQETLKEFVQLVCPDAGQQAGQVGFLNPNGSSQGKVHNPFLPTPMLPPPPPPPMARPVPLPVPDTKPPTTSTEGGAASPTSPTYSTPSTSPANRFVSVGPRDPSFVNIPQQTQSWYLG
UniProt Q13772: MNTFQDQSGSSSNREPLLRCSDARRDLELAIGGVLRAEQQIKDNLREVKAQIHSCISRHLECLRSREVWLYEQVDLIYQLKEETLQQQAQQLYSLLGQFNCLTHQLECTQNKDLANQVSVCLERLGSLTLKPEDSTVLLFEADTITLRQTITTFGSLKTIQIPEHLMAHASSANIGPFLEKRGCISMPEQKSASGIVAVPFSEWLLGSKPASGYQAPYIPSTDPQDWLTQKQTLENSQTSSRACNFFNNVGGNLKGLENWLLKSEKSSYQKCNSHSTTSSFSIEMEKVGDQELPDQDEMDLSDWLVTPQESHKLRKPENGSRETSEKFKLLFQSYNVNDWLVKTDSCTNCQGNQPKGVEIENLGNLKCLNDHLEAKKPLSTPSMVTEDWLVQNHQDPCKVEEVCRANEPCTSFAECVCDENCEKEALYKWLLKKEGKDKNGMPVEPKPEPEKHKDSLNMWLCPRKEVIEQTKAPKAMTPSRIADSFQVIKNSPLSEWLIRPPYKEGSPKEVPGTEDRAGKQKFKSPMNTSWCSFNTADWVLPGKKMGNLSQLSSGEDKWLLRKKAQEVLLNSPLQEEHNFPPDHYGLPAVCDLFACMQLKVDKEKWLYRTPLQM
UniProt Q14980: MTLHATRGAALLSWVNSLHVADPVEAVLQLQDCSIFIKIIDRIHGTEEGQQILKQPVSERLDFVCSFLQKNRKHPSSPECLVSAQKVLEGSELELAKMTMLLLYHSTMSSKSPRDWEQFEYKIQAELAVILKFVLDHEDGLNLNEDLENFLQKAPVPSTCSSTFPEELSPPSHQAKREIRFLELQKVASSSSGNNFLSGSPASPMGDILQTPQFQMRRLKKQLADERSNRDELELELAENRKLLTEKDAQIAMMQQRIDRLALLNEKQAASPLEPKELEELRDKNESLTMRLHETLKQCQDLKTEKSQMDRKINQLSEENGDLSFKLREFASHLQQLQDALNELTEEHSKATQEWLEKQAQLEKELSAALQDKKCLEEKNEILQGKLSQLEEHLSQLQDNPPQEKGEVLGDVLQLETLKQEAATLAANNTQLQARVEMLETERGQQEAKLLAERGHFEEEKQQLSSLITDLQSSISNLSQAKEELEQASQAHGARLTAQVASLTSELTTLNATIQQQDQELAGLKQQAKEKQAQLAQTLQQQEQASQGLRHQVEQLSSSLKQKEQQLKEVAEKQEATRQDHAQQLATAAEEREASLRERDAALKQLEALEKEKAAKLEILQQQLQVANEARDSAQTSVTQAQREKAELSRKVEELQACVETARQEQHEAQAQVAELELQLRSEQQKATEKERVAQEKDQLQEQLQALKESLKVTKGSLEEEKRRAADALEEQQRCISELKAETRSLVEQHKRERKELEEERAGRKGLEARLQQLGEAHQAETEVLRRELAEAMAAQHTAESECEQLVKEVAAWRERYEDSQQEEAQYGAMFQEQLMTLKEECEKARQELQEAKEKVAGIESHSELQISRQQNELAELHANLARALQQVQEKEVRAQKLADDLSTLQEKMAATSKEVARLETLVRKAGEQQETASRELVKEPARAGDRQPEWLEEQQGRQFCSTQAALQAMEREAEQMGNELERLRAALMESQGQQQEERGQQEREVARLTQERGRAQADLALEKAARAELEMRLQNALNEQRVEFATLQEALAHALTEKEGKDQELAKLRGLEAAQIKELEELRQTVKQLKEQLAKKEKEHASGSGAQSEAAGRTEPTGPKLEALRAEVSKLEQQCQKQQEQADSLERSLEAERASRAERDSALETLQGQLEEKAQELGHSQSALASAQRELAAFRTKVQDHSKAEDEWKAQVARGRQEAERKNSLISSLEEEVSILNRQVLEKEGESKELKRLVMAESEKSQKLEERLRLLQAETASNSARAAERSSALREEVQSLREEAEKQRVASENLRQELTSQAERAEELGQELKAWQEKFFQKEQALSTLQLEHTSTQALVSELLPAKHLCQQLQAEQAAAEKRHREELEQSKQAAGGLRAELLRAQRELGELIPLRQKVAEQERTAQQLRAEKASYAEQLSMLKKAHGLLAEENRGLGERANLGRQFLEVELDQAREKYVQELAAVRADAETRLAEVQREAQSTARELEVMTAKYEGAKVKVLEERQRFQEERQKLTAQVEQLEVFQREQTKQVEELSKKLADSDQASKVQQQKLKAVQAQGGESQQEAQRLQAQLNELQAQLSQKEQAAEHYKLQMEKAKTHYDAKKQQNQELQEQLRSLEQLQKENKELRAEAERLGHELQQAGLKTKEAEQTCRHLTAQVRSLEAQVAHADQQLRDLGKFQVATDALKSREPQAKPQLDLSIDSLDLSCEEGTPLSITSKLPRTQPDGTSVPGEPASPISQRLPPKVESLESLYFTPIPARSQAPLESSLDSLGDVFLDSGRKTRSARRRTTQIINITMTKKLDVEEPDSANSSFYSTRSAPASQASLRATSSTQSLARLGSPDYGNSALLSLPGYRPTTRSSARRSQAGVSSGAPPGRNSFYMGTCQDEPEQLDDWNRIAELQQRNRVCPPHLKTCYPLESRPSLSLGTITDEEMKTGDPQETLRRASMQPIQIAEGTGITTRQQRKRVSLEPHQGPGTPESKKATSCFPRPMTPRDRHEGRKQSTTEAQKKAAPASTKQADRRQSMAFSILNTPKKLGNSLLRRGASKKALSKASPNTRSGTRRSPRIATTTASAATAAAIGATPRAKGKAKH

compound: COc1ccc(Cn2ccc3cc(C)c(C(=O)NO)cc32)cc1; assay: dose-dependent thermal stabilisation call (2D-TPP, DLPTP, 10% FDR) (binary (1 = stabilised)); higher = stabilised by the compound; conditions: system: HL-60 intact cells; concentration range 0.04-10 µM
Procedure: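 2D thermal proteome profiling in intact HL-60 cells treated with BRD-3811 (0, 0.04, 0.29, 2, 10 uM) for 90 min at 37 C, then heated 3 min at one of 12 temperatures (42-63.9 C). Soluble protein was quantified by TMT10 MS. The value is the DLPTP call of the paper: dose-dependent thermal stabilisation over all temperatures at 10% FDR (F-test of a dose-response against a flat model); one experiment, one call per tested protein.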

Target	dose-dependent thermal stabilisation call
NUDT15 (UniProt Q9NV35)	inactive: 0
NHEJ1 (UniProt Q9H9Q4)	inactive: 0
NOL6 (UniProt Q9H6R4)	inactive: 0
NFYC (UniProt Q13952)	inactive: 0
NIPSNAP3A (UniProt Q9UFN0)	inactive: 0
NOL10 (UniProt Q9BSC4)	inactive: 0
NUDT4 (UniProt Q9NZJ9)	inactive: 0
NUDCD3 (UniProt Q8IVD9)	inactive: 0
NUSAP1 (UniProt Q9BXS6)	inactive: 0
NDRG3 (UniProt Q9UGV2)	inactive: 0
NOC4L (UniProt Q9BVI4)	inactive: 0
NARF (UniProt Q9UHQ1)	inactive: 0
NDUFA3 (UniProt O95167)	inactive: 0
NOSIP (UniProt Q9Y314)	inactive: 0
NDNL2 (UniProt Q96MG7)	inactive: 0
NFKB1 (UniProt P19838)	inactive: 0
NAGPA (UniProt Q9UK23)	inactive: 0
NCLN (UniProt Q969V3)	inactive: 0
NF1 (UniProt P21359)	inactive: 0
NF2 (UniProt P35240)	inactive: 0

As a short view, part of the list above:
Target	dose-dependent thermal stabilisation call
NOL6 (UniProt Q9H6R4)	inactive: 0
NFYC (UniProt Q13952)	inactive: 0
NIPSNAP3A (UniProt Q9UFN0)	inactive: 0

Additional results.

Target	dose-dependent thermal stabilisation call
NDUFAB1 (UniProt O14561)	inactive: 0
NME4 (UniProt O00746)	inactive: 0
NDUFV1 (UniProt P49821)	inactive: 0
NAPA (UniProt P54920)	inactive: 0
NCKIPSD (UniProt Q9NZQ3)	inactive: 0
NDUFS2 (UniProt O75306)	inactive: 0
NUP155 (UniProt O75694)	inactive: 0
NOL11 (UniProt Q9H8H0)	inactive: 0
NDFIP2 (UniProt Q9NV92)	inactive: 0
NCAPG (UniProt Q9BPX3)	inactive: 0
NFIA (UniProt Q12857)	inactive: 0
NUDT6 (UniProt P53370)	inactive: 0
NCOA4 (UniProt Q13772)	inactive: 0
NUP214 (UniProt P35658)	inactive: 0
NBN (UniProt O60934)	inactive: 0
NGRN (UniProt Q9NPE2)	inactive: 0
NPEPL1 (UniProt Q8NDH3)	inactive: 0
NCL (UniProt P19338)	inactive: 0
OAS3 (UniProt Q9Y6K5)	inactive: 0
NUMA1 (UniProt Q14980)	inactive: 0
